Assay results reported in patent US11434299 (TENEOBIO, dated 2022).
These are yes or no findings as the source states them, for the method shown. Some binding calls cover weakened binding; strength is not graded here.

The chains behind the UniProt entries cited, without tags or fusion partners.
UniProt Q02223: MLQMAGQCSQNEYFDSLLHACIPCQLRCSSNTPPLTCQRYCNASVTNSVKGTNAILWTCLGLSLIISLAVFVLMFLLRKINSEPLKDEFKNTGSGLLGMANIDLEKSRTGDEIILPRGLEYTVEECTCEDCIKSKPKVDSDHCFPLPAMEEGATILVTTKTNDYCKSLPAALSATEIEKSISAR

Molecular target: human BCMA (B-Cell Maturation Antigen) on NCI-H929 cells (human) (UniProt Q02223)
Assay: flow cytometry, HEK supernatants on NCI-H929 cells (BCMA+)

Row | binding | Binder
1 | binds | SEQ ID NO 25 (antibody, V domains shown) VH: EVQLLESGGGLVQPGGSLRLSCAASGFTFSSYAMNWVRQAPGKGLEWVSGITGSGGTTYYADSVKGRFTISRDNSKNTLYLQMNSLRAEDTAVYYCVKDWNTTMITERGQGTLVTVSS
2 | binds | SEQ ID NO 26 (antibody, V domains shown) VH: EVQLLESGGGLVQPGGSLRLSCAASGFTFSSYAMNWVRQAPGKGLEWVSGITGSGGTTYYADSVKGRFTISRDNSKNTLYLQMNSLRAEDTAVYYCVKDWNTTMITERGQGTLVTVSS
